Laboratory results: PubChem BioAssay AID504808 (Drosophila RNAi Screening Center, 2011)
The deposit covers about 21,000 reagents; this is a random part of those that have a named target and a result. Over the whole deposit, 18 (0.084%) are marked active. 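Raw counts without plate normalisation, one of two replicates; the ratio scores behind the calls were not deposited.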 Not given: the amount of reagent, the time to read-out.

Assay: 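Fly genes required to hold E2F transcription in check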 (primary screen)
System: Drosophila S2 cells
Reagents: long dsRNA against Drosophila genes
Measurement: 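Dual luciferase plate measurements; E2F-specific signal taken as firefly over Renilla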
Scale: E2F firefly: higher = more E2F reporter activity; Renilla normaliser: higher = more normaliser reporter signal
Hit rule: 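Called active if the normalised E2F reporter went up by over 50%; the cutoff is arbitrary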

CG31268 [DRSC13203]
- E2F firefly, rep 1: 83591
- Renilla normaliser, rep 1: 2916
- call: inactive

RpL37-1 [DRSC20149]
- E2F firefly, rep 1: 1.53e5
- Renilla normaliser, rep 1: 6279
- call: inactive

Veneno [DRSC16537]
- E2F firefly, rep 1: 1.48e5
- Renilla normaliser, rep 1: 7250
- call: inactive

CG14313 [DRSC14792]
- E2F firefly, rep 1: 1.42e5
- Renilla normaliser, rep 1: 6187
- call: inactive

dgt5 [DRSC07280]
- E2F firefly, rep 1: 3644
- Renilla normaliser, rep 1: 191
- call: inactive

egh [DRSC18771]
- E2F firefly, rep 1: 1.16e5
- Renilla normaliser, rep 1: 5994
- call: inactive

Ndc1 [DRSC15895]
- E2F firefly, rep 1: 66835
- Renilla normaliser, rep 1: 3370
- call: inactive

2 entries from above, showing only “Renilla normaliser, rep 1”.
egh [DRSC18771]	5994
Ndc1 [DRSC15895]	3370

Continued.
CG13049 [DRSC09930]
- E2F firefly, rep 1: 1.48e5
- Renilla normaliser, rep 1: 8040
- call: inactive

Gr47a [DRSC06221]
- E2F firefly, rep 1: 1.36e5
- Renilla normaliser, rep 1: 5197
- call: inactive

meru [DRSC09400]
- E2F firefly, rep 1: 1.34e5
- Renilla normaliser, rep 1: 4811
- call: inactive

meru [DRSC09899]
- E2F firefly, rep 1: 67775
- Renilla normaliser, rep 1: 9707
- call: inactive

meru [DRSC10215]
- E2F firefly, rep 1: 1.56e5
- Renilla normaliser, rep 1: 8145
- call: inactive

spaw [DRSC06824]
- E2F firefly, rep 1: 1.35e5
- Renilla normaliser, rep 1: 4734
- call: inactive

CG3706 [DRSC18649]
- E2F firefly, rep 1: 1.26e5
- Renilla normaliser, rep 1: 6088
- call: inactive

CG3592 [DRSC18315]
- E2F firefly, rep 1: 1.26e5
- Renilla normaliser, rep 1: 6436
- call: inactive

Kots [DRSC16581]
- E2F firefly, rep 1: 77581
- Renilla normaliser, rep 1: 3666
- call: inactive

CG9297 [DRSC16469]
- E2F firefly, rep 1: 81106
- Renilla normaliser, rep 1: 3745
- call: inactive

slp1 [DRSC00835]
- E2F firefly, rep 1: 74755
- Renilla normaliser, rep 1: 3937
- call: inactive

rig [DRSC06053]
- E2F firefly, rep 1: 73861
- Renilla normaliser, rep 1: 3582
- call: inactive

rig [DRSC06400]
- E2F firefly, rep 1: 94170
- Renilla normaliser, rep 1: 3389
- call: inactive
